Test results published in article PMC9945626.
These are yes or no findings as the source states them, for the method shown. In cells and extracts the contact can be indirect. Some entries that bind do so weakly or less than the wild type.

Protein sequences, listed by entry. Tags and fused reporters are not part of them. Lines headed by an entry give the natural chain unless they say otherwise; changes in a name come on top. Chains listed by the source or under a name are the forms on record and can include a tag or linker.
UniProt Q9HCE7: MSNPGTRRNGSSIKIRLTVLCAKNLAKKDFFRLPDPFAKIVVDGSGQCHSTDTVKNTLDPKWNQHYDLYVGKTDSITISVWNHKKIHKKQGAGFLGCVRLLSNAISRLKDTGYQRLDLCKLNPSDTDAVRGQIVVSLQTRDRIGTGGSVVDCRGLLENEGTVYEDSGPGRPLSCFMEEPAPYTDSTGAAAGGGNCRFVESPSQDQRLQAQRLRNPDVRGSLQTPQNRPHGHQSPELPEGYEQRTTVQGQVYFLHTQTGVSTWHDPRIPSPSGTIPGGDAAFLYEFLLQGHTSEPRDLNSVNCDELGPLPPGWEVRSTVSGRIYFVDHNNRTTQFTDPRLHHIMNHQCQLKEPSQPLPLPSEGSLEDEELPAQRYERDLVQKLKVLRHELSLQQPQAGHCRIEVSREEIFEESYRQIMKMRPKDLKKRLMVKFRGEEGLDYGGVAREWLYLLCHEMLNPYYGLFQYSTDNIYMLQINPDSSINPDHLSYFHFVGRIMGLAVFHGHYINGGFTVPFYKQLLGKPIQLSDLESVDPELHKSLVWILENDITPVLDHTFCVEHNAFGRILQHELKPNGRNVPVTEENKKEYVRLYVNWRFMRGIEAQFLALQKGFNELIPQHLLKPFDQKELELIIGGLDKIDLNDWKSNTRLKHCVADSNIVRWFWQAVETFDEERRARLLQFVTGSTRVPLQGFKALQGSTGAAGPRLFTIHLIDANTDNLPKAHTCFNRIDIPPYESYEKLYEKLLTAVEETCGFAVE
HA-Smurf1 (Q9HCE7-2, form named): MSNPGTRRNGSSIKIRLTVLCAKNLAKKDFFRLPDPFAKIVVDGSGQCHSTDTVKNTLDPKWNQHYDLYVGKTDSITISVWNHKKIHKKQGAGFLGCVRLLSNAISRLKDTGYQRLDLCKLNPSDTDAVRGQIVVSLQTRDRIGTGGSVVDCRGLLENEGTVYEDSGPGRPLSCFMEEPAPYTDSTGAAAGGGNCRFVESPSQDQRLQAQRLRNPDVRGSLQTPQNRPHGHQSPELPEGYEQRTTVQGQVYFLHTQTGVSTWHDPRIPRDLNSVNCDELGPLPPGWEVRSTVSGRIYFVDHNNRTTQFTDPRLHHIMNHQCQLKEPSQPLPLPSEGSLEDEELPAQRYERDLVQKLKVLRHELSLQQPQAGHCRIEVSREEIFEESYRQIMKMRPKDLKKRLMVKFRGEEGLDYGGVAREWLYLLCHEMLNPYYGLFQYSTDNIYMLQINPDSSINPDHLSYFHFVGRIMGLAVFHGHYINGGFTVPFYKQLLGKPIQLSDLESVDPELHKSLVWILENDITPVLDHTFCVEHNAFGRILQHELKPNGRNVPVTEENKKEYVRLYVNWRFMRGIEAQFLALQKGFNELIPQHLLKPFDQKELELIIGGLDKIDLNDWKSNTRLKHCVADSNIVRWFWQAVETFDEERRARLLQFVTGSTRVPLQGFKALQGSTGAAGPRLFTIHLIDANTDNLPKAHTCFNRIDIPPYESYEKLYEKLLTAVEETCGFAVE

Key:
GFP-p62 = GFP-p62 (UniProt Q13501); assay: co-IP; 293T (text: LN229) overexpressing GFP-p62 and Flag-tagged Smurf1 constructs; lysates immunoprecipitated with anti-GFP antibody, blots anti-GFP and anti-Flag
HA-Smurf1 = HA-Smurf1 (UniProt Q9HCE7); assay: co-IP; 293T (text: LN229) treated with control siRNA, transfected with HA or HA-Smurf1; immunoprecipitated with HA antibody, blots anti-p62, anti-NBR1, anti-HA
[1] = target: endogenous Smurf1 (SMAD Specific E3 Ubiquitin Protein Ligase 1) (human (endogenous in 293T)) (UniProt Q9HCE7); assay: co-IP; 293T lysates immunoprecipitated with IgG or anti-Smurf1 antibody and protein G agarose, endogenous proteins, blots for p62, LC3B, Smurf1; untreated (Fig. 1E) or MG132-treated cells (Fig. 4D), si-Control or si-p62 (Fig. 4F); lysis buffer 50 mM Tris pH 8.0, 150 mM NaCl, 1% NP40, 0.5% sodium deoxycholate

Row | binding (GFP-p62) | binding (HA-Smurf1) | binding [1] | Substance
1 | binds | – | – | Flag-Smurf1 (from UniProt Q9HCE7-2 1-731)
2 | – | binds | binds | endogenous p62 (SQSTM1, Sequestosome-1) (from UniProt Q13501 1-440)
